Data reported in patent US20190298717A1 (BOARD OF REGENTS, THE UNIVERSITY OF TEXAS SYSTEM, priority 2016, published 2019).
“Also recorded” adds a separate entry of the source. At least one structure is not confirmed: it was looked up by name or label, or the drawing left a doubt.

Columns and labels:
SH-SY5Y cells [1] = assay: Protein carbonyl assay (2,4-DNPH) in H2O2-stressed cells; format: cell-based, human; details: 100 μM H2O2 24 h, 10 and 25 μM compound
Method: (§1) To generate intracellular aldehydes, the inventors treated human neuroblastoma cell line (SH-SY5Y) with 100 μM hydrogen peroxide (H2O2) for 24 h. Carbonyl groups were quantified using 2,4-DNPH (dinitrophenylhydrazine) assay.
Protein carbonyl Assay. Protein carbonyls were measured using a commercially available kit (MAK094; Sigma-Aldrich, St. Louis, Mo.). Cells were first lysed in lysis buffer provided by the kit.
Following centrifugation, 100 μL of supernatant was added to 10 μL of 10% […] solution, was incubated at room temperature for 10 min and re-centrifuged to remove interfering nucleic acids. Carbonyl content of supernatant was determined by adding 2, 4-dinatrophenylhydrazine followed by detection of dinitrophenyl hydrazine adduct at 375 nm in a 96 well plate reader. The protein content of each sample was determined using a bicinchoninic acid (BCA) assay, Thermo Fischer, Waltham, Mass.).

SH-SY5Y cells [2] = assay: MTT cell viability under H2O2 induced stress; format: cell-based, human; details: 100 μM H2O2 24 h, 10 and 25 μM compound
Method: as §1
Cell Viability and Cytotoxicity Assay. Cell growth was analyzed using the MTT cell viability assay. Briefly, at the end of incubation/treatment, MTT reagent was diluted in culture medium and aliquoted into each well. After incubation for 2 hours, the medium was aspirated and DMSO was aliquoted into each well to disrupt the cells and dissolve the intracellular MTT dyes. Absorbance was read at 570 nm wavelength in a 96-well plate reader. Cell toxicity was detected using a LDH cell toxicity assay kit (Promega, Fitchburg Wis.). This is a coupled enzymatic assay that detects a visible color signal initially described by Nachlas et. al. The reagent contained excess concentrations of lactate and NAD+as substrates to drive the LDH reaction and produce NADH. In the presence of diaphorase, NADH drives the enzyme-catalyzed conversion of iodonitro-tetrazolium violet to a red formazan product. Briefly, DMEM medium was withdrawn from each well of the plate after treatment and briefly centrifuged to get rid of floating cells or cell debris. […] The absorbance was read at 490 nm in a 96-well plate reader. […]

C. elegans = assay: Rotenone stress test in worms; details: in vivo
Text: The inventors again used rotenone to elicit PD-like changes.
Rotenone stress test. […] After 3 days young adult worms were transferred to fresh NGM plates either preloaded with rotenone alone or rotenone plus any of the abovementioned compounds. Every worm was subjected to prodding test with a worm pick every day. A worm was scored as dead when not responding to three repeated proddings. Survival curve was plotted using Prism 7.

SMILES: NN [hydrazine]
- protein carbonyls (SH-SY5Y cells [1]): reduced protein carbonyls significantly
- protein carbonyls (SH-SY5Y cells [1]; listed as Hydrazine): reduced the free carbonyls
- cell viability under H2O2 induced cell death (MTT) (SH-SY5Y cells [2]): failed to protect cells
- cell viability under H2O2 induced cell death (MTT) (SH-SY5Y cells [2]; listed as Hydrazine): did not rescue cells
- protection against rotenone-induced death (C. elegans): No protection; also recorded: did not protect worms
